Here are results for one molecule from article PMC6679371, “Synthesis and Evaluation of Novel Pyrazole Ethandiamide Compounds as Inhibitors of Human THP-1 Monocytic Cell Neurotoxicity” (Cells, 2019).

The series is described as follows: Compatibility control: compounds mixed with MTT solution in the absence of cells. Conditions: 1–100 µM, absorbance at 570 nm, no cells. The procedure: The new pyrazole derivatives 2a–f and 3 were tested in vitro to determine their cytotoxicity as well as their anti-neurotoxic and neuroprotective properties. […] The compatibility of compounds 2 and 3 with the assay used in this study was investigated first. Thus, controls were performed with all compounds and the MTT reagent used in the cell viability assay; the absorbance at 570 nm was measured after mixing the compounds with the MTT solution in the absence of cells.

Entries after “also recorded” stand apart in the source; their conditions may differ.

In the case of `N#Cc1cnn(-c2ccccc2)c1NC(=O)C(=O)Nc1ccc(O)cc1` [2f], the “reaction with / interference with the MTT reagent” value is given as “found to react with the MTT reagent; also recorded: interfered with the MTT assay”.
